This note sets out measurements from patent publication EP4825838A1, “CATIONIC LIPID AND USE THEREOF” (dated 2026).

The structures given here were assigned with low confidence; some may be wrong.

Series [1] relates to female Balb/c mice. Briefly: Hepatocyte growth factor protein expression in muscle after intramuscular injection of HGF mRNA lipid nanoparticle compositions, ELISA (Test Example 2). Particulars: LNP of the compound, gastrocnemius muscle injection 0.05 mg/kg, muscle at injection site after 6 h.
The nature of series [2]: Characterization of lipid nanoparticle compositions (size, PDI, encapsulation efficiency). The following applies: for Size (nm): lipid nanoparticles of the compound with DSPC, cholesterol, DMG-PEG 50:10:38.5:1.5, luciferase mRNA; for Size (nm) / PDI: dynamic light scattering; for Encapsulation efficiency (%) / PDI: lipid nanoparticles of the compound, luciferase mRNA; for Encapsulation efficiency (%): Quant-iT RiboGreen RNA assay kit.

Series [3] deals with female Balb/c mice. As to the kind of experiment: mRNA delivery efficiency after intramuscular administration of luciferase mRNA lipid nanoparticles (Test Example 2). Particulars: LNP of the compound, intramuscular 0.1 mg/kg, 24 h after administration.
Series [4] concerns female Balb/c mice. As to the kind of experiment: mRNA delivery efficiency and tissue distribution after in vivo tail vein injection of luciferase mRNA lipid nanoparticle compositions (Test Example 1). Particulars: for Mean fluorescence intensity (p/s) 24 h / Mean fluorescence intensity (p/s) 48 h: LNP of the compound, luciferase mRNA, tail vein injection 0.5 mg/kg, whole mouse IVIS; for Mean fluorescence intensity (p/s) 24 h: 24 h after administration; for Mean fluorescence intensity (p/s) 48 h: 48 h after administration.

Series [5] deals with HuH-7 cells (human liver cancer cells). As to the kind of experiment: mRNA delivery efficiency on cells, luciferase reporter assay (Test Example 5). The following applies: LNP of the compound with luciferase mRNA 100 ng/well, after 24 h, microplate reader.
Series [6] deals with female Balb/c mice. As to the kind of experiment: mRNA delivery efficiency after in vivo tail vein injection of luciferase mRNA lipid nanoparticle compositions (Test Example 6). The following applies: LNP of the compound, tail vein injection 0.5 mg/kg; for Mean fluorescence intensity (p/s) 24 h: 24 h after administration; for Mean fluorescence intensity (p/s) 48 h: 48 h after administration.

Series [7] can be described thus: Freeze-drying of lipid particle compositions: particle size, PDI, encapsulation efficiency before and after (Test Example 4). Particulars: for Rate of change in particle size after freeze-drying (%): after vs before freeze-drying; for Particle size before freeze-drying (nm): lipid nanoparticles in 20 mM Tris, pH 7.5, 8% sucrose; for Encapsulation efficiency after freeze-drying and reconstitution (%) / Particle size after freeze-drying and reconstitution (nm): reconstitution with 0.6 mL water for injection.

For another series, the system named is HEK 293 cells. As to the kind of experiment: mRNA delivery efficiency on cells, luciferase reporter assay (Test Example 5). The following applies: LNP of the compound with luciferase mRNA 100 ng/well, after 24 h, microplate reader.
The test system of another series is interleukin 6 (IL-6). As to the kind of experiment: In vivo safety: IL-6 concentration in muscle tissue after intramuscular injection of lipid nanoparticle compositions, ELISA (Test Example 3). The following applies: LNP of the compound, hepatocyte growth factor mRNA, intramuscular 0.05 mg/kg, muscle tissue at injection site after 6 h.
[8] abbreviates: tail vein 0.5 mg/kg, 24-hour mice dissected, heart.
Where [9] appears, read: tail vein 0.5 mg/kg, 24-hour mice dissected, kidney.
The mark [10] stands for this setting: tail vein 0.5 mg/kg, 24-hour mice dissected, liver.
The mark [11] stands for this setting: tail vein 0.5 mg/kg, 24-hour mice dissected, lung.
Setting [12] is: tail vein 0.5 mg/kg, 24-hour mice dissected, spleen.

Take `CCCCCCCCC(CCCCCCCC)OC(=O)CCCCCCCN(CCCCCOCC(=O)OC(CCCCCCCC)CCCCCCCC)CCCNc1c(NC)c(=O)c1=O`: the “Mean protein expression level” value in the series on female Balb/c mice [1] worked out at 8.39 ng/mg. In series [2], the “Size (nm)” value was 63.3 nm, the “Encapsulation efficiency (%)” value was found to be 99% and the PDI is listed as 0.10. Moreover, the “Mean fluorescence intensity (p/s)” value in the series with female Balb/c mice [3] is listed as 6.97E+08 p/s. In addition, in the series on female Balb/c mice [3] (listed as compound 2), the “Mean fluorescence intensity (p/s)” value was “significantly higher”. For the same molecule, in the series with female Balb/c mice [4] (0.5 mg/kg), the “Mean fluorescence intensity (p/s) 24 h” value is listed as 1.25E+10 p/s and the “Mean fluorescence intensity (p/s) 48 h” value came to 1.51E+09 p/s. Besides, in the series on female Balb/c mice [4] (setting [8]), the “Fluorescence intensity (p/s) Heart” value was determined as 9.52E+05 p/s and the “Fluorescence intensity proportion (%) Heart” value came out at 0.03%. For the same molecule, in the series on female Balb/c mice [4] (setting [9]), the “Fluorescence intensity (p/s) Kidney” value is reported as 3.48E+06 p/s and the “Fluorescence intensity proportion (%) Kidney” value came out at 0.10%. Moreover, in the series with female Balb/c mice [4] (setting [10]), the “Fluorescence intensity (p/s) Liver” value stood at 3.12E+09 p/s and the “Fluorescence intensity proportion (%) Liver” value is given as 95.76%. Besides, in the series with female Balb/c mice [4] (tail vein 0.5 mg/kg, 24-hour mice dissected, liver, listed as compound 2), the “Fluorescence intensity proportion (%) Liver” value was over 95%. In addition, in the series with female Balb/c mice [4] (setting [11]), the “Fluorescence intensity (p/s) Lung” value is listed as 1.39E+07 p/s and the “Fluorescence intensity proportion (%) Lung” value amounted to 0.43%. In the series on female Balb/c mice [4] (setting [12]), the “Fluorescence intensity (p/s) Spleen” value was found to be 1.20E+08 p/s and the “Fluorescence intensity proportion (%) Spleen” value was 3.68%.
As to `CCCCCCCCC(CC)OC(=O)CCCCCCCN(CCCCCCCC(=O)OC(CCCCCCCC)CCCCCCCC)CCCNc1c(NC)c(=O)c1=O` (stereo not drawn), in series [2], the “Size (nm)” value was 64.8 nm. Also, the Mean fluorescence intensity in series [5] stood at 4.18E+07. In addition, the “Mean fluorescence intensity (p/s)” value in the series on female Balb/c mice [3] is 1.90E+08 p/s. The figures for the “Mean fluorescence intensity (p/s) 24 h” value in the series on female Balb/c mice [6] and in the series on female Balb/c mice [4] were 2.02E+09 p/s and 3.98E+09 p/s, respectively. In addition, the figures for the “Mean fluorescence intensity (p/s) 48 h” value in the series with female Balb/c mice [6] and with female Balb/c mice [4] were 2.84E+08 p/s and 3.11E+08 p/s, respectively.
Consider `CCCCCCCCC(CC)OC(=O)CCCCCCCN(CCCNc1c(NC)c(=O)c1=O)CCCOCCCC(=O)OC(CCCCCCCC)CCCCCCCC` (stereo not drawn), for which, in series [2], the “Size (nm)” value came to 64.4 nm, the “Encapsulation efficiency (%)” value was 98% and the PDI is reported as 0.06. Further, in series [7], the “Encapsulation efficiency before freeze-drying (%)” value came out at 97.9%, the PDI after freeze-drying stood at 0.08, the PDI before freeze-drying is recorded as 0.10 and the “Rate of change in particle size after freeze-drying (%)” value came out at 43.5%. In series [7], the “Particle size before freeze-drying (nm)” value amounted to 64.4 nm; the “Encapsulation efficiency after freeze-drying and reconstitution (%)” value was found to be 80.5%; the “Particle size after freeze-drying and reconstitution (nm)” value came to 92.4 nm. In addition, the “Encapsulation efficiency after freeze-drying and reconstitution (%)” value in series [7] (listed as compound 5) is on record as “lower than 85%”. The molecule also came in with a Mean fluorescence intensity in series [5] of 4.54E+07. For the same molecule, the Mean fluorescence intensity entry in series [5] (listed as compound 5) is “not significantly different”. In the series with HEK 293 cells, this molecule displayed a Mean fluorescence intensity of 1.56E+07. Further, in the series with female Balb/c mice [6], the “Mean fluorescence intensity (p/s) 24 h” value was determined as 5.25E+08 p/s and the “Mean fluorescence intensity (p/s) 48 h” value turned out to be 7.26E+07 p/s.
`CCCCCCCCC(CC)OC(=O)CCCCCCCN(CCCCCCCC(=O)OC(CCCCCCCC)CCCCCCCC)C1CCC(Nc2c(NC)c(=O)c2=O)CC1` (stereo not drawn): in series [2], the “Size (nm)” value came to 64.2 nm, the “Encapsulation efficiency (%)” value is recorded as 99% and the PDI is given as 0.10. In the series with female Balb/c mice [4] (0.5 mg/kg), the “Mean fluorescence intensity (p/s) 24 h” value came out at 6.58E+09 p/s and the “Mean fluorescence intensity (p/s) 48 h” value is 6.61E+08 p/s.
With `CCCCCCCCC(CC)OC(=O)CCCCCCCN(CCCCCOCC(=O)OC(CCCCCCCC)CCCCCCCC)CCCNc1c(NC)c(=O)c1=O` (stereo not drawn), the “Mean protein expression level” value in the series with female Balb/c mice [1] came to 9.73 ng/mg. For the same molecule, in series [2], the “Size (nm)” value amounted to 69.6 nm, the “Encapsulation efficiency (%)” value is reported as 98% and the PDI worked out at 0.08. For the same molecule, in series [7], the “Encapsulation efficiency before freeze-drying (%)” value came out at 99.5%, the PDI after freeze-drying was found to be 0.08, the PDI before freeze-drying was determined as 0.04 and the “Rate of change in particle size after freeze-drying (%)” value stood at 16.4%. In [7], the “Particle size before freeze-drying (nm)” value is on record as 67.0 nm; the “Encapsulation efficiency after freeze-drying and reconstitution (%)” value is 92.4%; the “Particle size after freeze-drying and reconstitution (nm)” value came out at 78.0 nm. For the same molecule, in series [7] (before and after freeze-drying), the “particle-size distributions (PDI)” value is “less than 0.1”. Besides, in [7] (listed as compound 1), the “Encapsulation efficiency after freeze-drying and reconstitution (%)” value is given as “higher than 90%”. Also, the “Tissue IL-6 concentration” value in the series on interleukin 6 (IL-6) amounted to 164.2 pg/mg. Besides, in the series with interleukin 6 (IL-6) (listed as compound 1), the “Tissue IL-6 concentration (pg/mg)” value is on record as “significantly lower”. The molecule further came in with a Mean fluorescence intensity in [5] of 6.48E+07. Further, the Mean fluorescence intensity result in [5] (listed as compound 1) was “significantly higher”. This molecule gave a Mean fluorescence intensity with HEK 293 cells of 2.23E+07. In addition, in the series on female Balb/c mice [3], the “Mean fluorescence intensity (p/s)” value is reported as 7.98E+08 p/s. Also, in the series on female Balb/c mice [3] (listed as compound 1), the “Mean fluorescence intensity (p/s)” value was “significantly higher”. Also, in the series with female Balb/c mice [4] (0.5 mg/kg), the “Mean fluorescence intensity (p/s) 24 h” value was 7.67E+09 p/s and the “Mean fluorescence intensity (p/s) 48 h” value is listed as 1.11E+09 p/s.
`CCCCCCCCC(CC)OC(=O)CCCCCCCN(CCCNc1c(NC)c(=O)c1=O)CCOCCCCC(=O)OC(CCCCCCCC)CCCCCCCC` (stereo not drawn): in [2], the “Size (nm)” value is listed as 71.9 nm, the “Encapsulation efficiency (%)” value came to 98% and the PDI came to 0.16. Besides, in [7], the “Encapsulation efficiency before freeze-drying (%)” value is 98.5%, the PDI after freeze-drying is 0.24, the PDI before freeze-drying is listed as 0.16 and the “Rate of change in particle size after freeze-drying (%)” value is reported as 38.2%. In series [7], the “Particle size before freeze-drying (nm)” value is 71.9 nm; the “Encapsulation efficiency after freeze-drying and reconstitution (%)” value was found to be 84.1%; the “Particle size after freeze-drying and reconstitution (nm)” value is 99.4 nm. Besides, in [7] (listed as compound 6), the “Encapsulation efficiency after freeze-drying and reconstitution (%)” value was “lower than 85%”. In series [5], this molecule yielded a Mean fluorescence intensity of 5.19E+07. This molecule also registered a Mean fluorescence intensity with HEK 293 cells of 1.71E+07. In the series with female Balb/c mice [6], the “Mean fluorescence intensity (p/s) 24 h” value came out at 1.27E+09 p/s and the “Mean fluorescence intensity (p/s) 48 h” value worked out at 1.31E+08 p/s.
